PubChem BioAssay AID330 (DTP/NCI, 2004)
The list does not hold the whole screen: it is rich in T/C values a quarter to a half above the control, in often repeated tests (any T/C) and in doses without a T/C. Other doses and runs of a compound stand elsewhere. T/C is the treated group as % of the vehicle group. Some entries give survivors of the animals treated and no T/C: the source holds a T/C of zero for them, seemingly a mark for toxic or unscored doses. Some survivor counts are full or nearly so, which does not show that the dose was tolerated: the source hardly ever lists a survival T/C far under the control, and the zero likely stands for such cases as well. Counts of survivors are from the toxicity check (mostly the fifth day) where no day follows; animals may have died later. Schedule codes are those of the source, taken here to give the interval after Q, in days (D) or hours (H), and the number of doses after X. Where survival is the endpoint, the PubChem record calls one and a half times the control and up active, and a quarter to a half above the control has no call in these data; cut-offs in other NCI protocols can differ.

Test system: P388 leukemia ip, CD2F1 mice, survival T/C
Assay: NCI In Vivo Anticancer Drug Screen. Data for tumor model P388 Leukemia (intraperitoneal) in CD2F1 (CDF1) mice
Conditions: T/C endpoint: median survival time, higher T/C = longer survival
[1] = dose: 50.0 mg/kg/injection, schedule: Q01DX005 (ip), vehicle: saline

For `O=[N+]([O-])c1nccn1CC(O)CO` (stereo unspecified), the T/C (dose: 400.0 mg/kg/injection, schedule: Q01DX009 (ip), vehicle: saline) was 143 % of control.
In the case of `N#CC1OC1c1cccc[n+]1[O-]` (stereo unspecified), the survivor count (dose: 25.0 mg/kg/injection, schedule: Q01DX005 (ip), vehicle: saline with Tween-80) is reported as 0 of 6, the survivor count (dose: 50.0 mg/kg/injection, schedule: Q01DX005 (ip), vehicle: saline with Tween-80) is reported as 0 of 6 and the survivor count [1] is reported as 0 of 6. For the same compound, the survivor count (dose: 100.0 mg/kg/injection, schedule: Q01DX005 (ip), vehicle: saline with Tween-80) was 0 of 6, the survivor count (dose: 100.0 mg/kg/injection, schedule: Q01DX005 (ip), vehicle: saline) was 0 of 6 and the survivor count (dose: 200.0 mg/kg/injection, schedule: Q01DX005 (ip), vehicle: saline with Tween-80) was 0 of 6. For the same compound, the survivor count (dose: 200.0 mg/kg/injection, schedule: Q01DX005 (ip), vehicle: saline) was 0 of 6.
`CCOC(=O)C12CC(COc3ccc([N+](=O)[O-])cc3)ON1OC(COc1ccc([N+](=O)[O-])cc1)C2` (stereo unspecified) was tested, and the survivor count (dose: 120.0 mg/kg/injection, schedule: Q01DX005 (ip), vehicle: saline with Tween-80) was 6 of 6 and the survivor count (dose: 240.0 mg/kg/injection, schedule: Q01DX005 (ip), vehicle: saline with Tween-80) was 6 of 6.
In the case of `[O-][n+]1ccccc1C1CO1` (stereo unspecified), the survivor count (dose: 50.0 mg/kg/injection, schedule: Q01DX009 (ip), vehicle: saline) is reported as 6 of 6 and the survivor count (dose: 200.0 mg/kg/injection, schedule: Q01DX009 (ip), vehicle: saline) is reported as 0 of 6.
For `CC1=C(c2ccccc2)OC(c2ccccc2)=C[P+]1(c1ccccc1)c1ccccc1`, the survivor count (dose: 6.25 mg/kg/injection, schedule: Q01DX005 (ip), vehicle: saline) was 2 of 5, the survivor count (dose: 12.5 mg/kg/injection, schedule: Q01DX005 (ip), vehicle: saline) was 0 of 5 and the survivor count (dose: 25.0 mg/kg/injection, schedule: Q01DX005 (ip), vehicle: saline) was 0 of 5. The survivor count [1] was 0 of 5.
With `CCOC(=O)CN1C(=S)CSC1=S` the survivor count (dose: 50.0 mg/kg/injection, schedule: Q01DX009 (ip), vehicle: Klucel (hydroxypropylcellulose) (HPC)) was 6 of 6.
In the case of `O=C1c2ccccc2C(=O)N1CC[P+](c1ccc(Cl)cc1)(c1ccc(Cl)cc1)c1ccc(Cl)cc1`, the survivor count (dose: 50.0 mg/kg/injection, schedule: Q01DX009 (ip), vehicle: other) is reported as 3 of 6, the survivor count (dose: 100.0 mg/kg/injection, schedule: Q01DX009 (ip), vehicle: other) is reported as 0 of 6 and the survivor count (dose: 200.0 mg/kg/injection, schedule: Q01DX009 (ip), vehicle: other) is reported as 0 of 6. For the same compound, the survivor count (dose: 400.0 mg/kg/injection, schedule: Q01DX009 (ip), vehicle: other) was 0 of 6.
